In all, about 53,000 sequences went through this assay and about 3,700 (7%) were called active.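 How the source made its calls: active means gene knockdowns whose robust z-score for IL-1 alpha signal is at least 2 or at most -2, so actives lie on both sides; inactive means the rest.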 Some of the results follow.
Test: Components of the Cytosolic LPS Sensing Pathway: Gene Identification via Genome-wide siRNA Screen;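 further: robust z of the log signal after scaling to non-targeting control siRNA wells of the plate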
Conditions: RAW264.7 macrophages, IL-1a HTRF, actives lie on both sides, screened at 100 nM (by protocol), cells primed 5 h with Pam3CSK4 first
Summary of the method: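 IL-1a HTRF of supernatants after 24 hour LipidA transfection of Pam3CSK4-primed (5 hours) RAW264.7 cells, 48h post-siRNA transfection (100 nM). Scores: percent of plate negative-control median, then log-based robust z-score.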
In the case of GGCACAGAUUGUGGUGAAGTT against Ccdc43, the z-score is reported as inactive: -0.518.
For GGCUUCCAGUACCAUUAGGTT against Ucp1, the z-score was inactive: -1.1.
With GGAACUGCUCAAGAUCAAGTT against Plagl2 the z-score was inactive: 1.92.
In the case of GGACCAUUCAUGGACUAGCTT against Map7, the z-score is reported as inactive: -0.413.
In the case of GGAUCAUUGAUGUCAUCUATT against Abcb10, the z-score is reported as inactive: -1.68.
In the case of GCUGCUUGUCCUAAGUUGATT against Aqp8, the z-score is reported as inactive: -0.165.
With CGGUCUUUAUACACAUAUATT against Wnt7a the z-score was inactive: -0.0297.
With GGCUGGAUCCUCAUUGACCTT against Kctd10 the z-score was inactive: -0.963.
For GGCUGUAUGUAGUGAAUAUTT against Nck2, the z-score was inactive: -0.572.
With GGUGGUUGAUCUGCUAAGGTT against Proser1 the z-score was inactive: 0.637.
For GGAGUCAAUGCAAUUGUUUTT against Arl8b, the z-score was inactive: -0.323.
With GGAACAAGGUCCUAAACCATT against Gtf2f1 the z-score was inactive: -0.704.
For GCCCUUGCACUAUUUUUCCTT against Olfr1218, the z-score was inactive: 0.902.
With GGAAUCAAUAAGAAUGACGTT against Tln2 the z-score was inactive: -0.716.
With GGUUGGCAAGUUCCUGUAUTT against Cdk3 the z-score was inactive: -0.825.
With GGAGAGGUCAGAAUAAUAATT against Tmprss11d the z-score was inactive: -0.423.
For UGUUGGAUACUAGUCACAATT against Olfr1066, the z-score was inactive: -0.24.
For GGGCUAGCCUAGAUAAAAATT against Sltm, the z-score was inactive: -1.38.
With GGGAUAUGGUGUGAUCUUUTT against Cyp2b19 the z-score was inactive: 0.705.
In the case of GGACUAUGCAGAUGCCUACTT against Cacnb3, the z-score is reported as inactive: 7.2e-05.
In the case of GGAUUCACGUAAGAUUGACTT against Prl6a1, the z-score is reported as inactive: 0.0592.
In the case of CCAAACACUAUGUGACAAGTT against Trim8, the z-score is reported as inactive: -0.626.
With CCUCAUUGGUUUGACCCAGTT against Hsd17b6 the z-score was inactive: 0.172.
In the case of GGACAAUAUAUCCGGAUUUTT against Myl12b, the z-score is reported as inactive: -0.493.
With CCGAAUGACGGUUGAAUAUTT against Nkrf the z-score was inactive: 0.624.
With GGGCAGAAUGCCAGUGUACTT against Kif22 the z-score was inactive: -0.305.
In the case of GGAACUGAAAAAGUUGUUGTT against Niban1, the z-score is reported as inactive: -0.253.
With CCUCAACAUAUUCAAACAUTT against Tlr7 the z-score was inactive: -0.269.
In the case of GGACAUAAAAUAUCUACGGTT against Trim17, the z-score is reported as inactive: 0.301.
With GGGUCUUUGUACAGAUUGCTT against Olfr275 the z-score was inactive: 0.0844.
In the case of GCUCACCAGAAUUUGUGGATT against Tcp11x2, the z-score is reported as inactive: 0.815.
With CGGAGCUCUAAAUGAACAUTT against Snai3 the z-score was inactive: 1.3.
With GCUACUAUAUGCGUUUCUUTT against Fads2 the z-score was inactive: 0.98.
In the case of GCUUUAUGCAGACAAACACTT against Zbtb8b, the z-score is reported as inactive: -0.785.
For GAUAAGUGCUUUCGUGUUUTT against Klrb1b, the z-score was inactive: 0.0759.
With GCAACAUUUCUCGGAAAUUTT against Olfr1275 the z-score was inactive: -0.266.
In the case of GGUUUGUGUGGUUUUUCCUTT against Tmem216, the z-score is reported as inactive: -0.965.
For GCAAUUGUUAACUCUGGGATT against Olfr1200, the z-score was inactive: 0.661.
For GCUGAAAAUCACCCAGCAATT against Afap1, the z-score was inactive: 0.907.
In the case of GCCACUCCUGGACACAAAATT against Ccnt2, the z-score is reported as inactive: 1.23.
For GCAGACCGAGUGAUCACCUTT against Cul4a, the z-score was inactive: 0.369.
In the case of CGCGUGAUUGAUGUUUUACTT against Atxn10, the z-score is reported as inactive: 0.793.
With GCGGAGGCAUUGCUAAUGATT against Mettl15 the z-score was inactive: 1.53.
In the case of GGUAAAUAGCGAUAAGGUATT against Tgm1, the z-score is reported as inactive: 1.28.
With GGACUCUUUUUGUUCUUUGTT against Vgll2 the z-score was inactive: -1.22.
In the case of GCGUAUAGCAGAAAACAGGTT against Rasl10a, the z-score is reported as inactive: 0.973.
With GGAACAUGGCAACUCCGUGTT against Hcn1 the z-score was inactive: 0.102.
With GCGCAAGUACCUCAAGAGUTT against Grem2 the z-score was inactive: 0.564.
In the case of GGUGAUCAACAAUGGCAAUTT against Clec4a3, the z-score is reported as inactive: 1.26.
With CGCACUGCCUCACUUUGAGTT against Kiss1r the z-score was inactive: 0.16.
For GCCACUCUGUCAAUUAACATT against Zbtb44, the z-score was inactive: -1.49.
In the case of GGCUGUUCGAGCCCUGAAATT against Naca, the z-score is reported as inactive: -1.22.
With GGAGGACACAGAUUCUACUTT against Fam161b the z-score was inactive: -1.87.
For GGUGACCUACAAGAUUUGUTT against Csdc2, the z-score was inactive: -0.801.
For GGCCCAGCAUGCAAGUUAUTT against Sh2d2a, the z-score was active: 2.17.
With CGGUGAACUAUGGUCCUGATT against Ceacam20 the z-score was inactive: -0.314.
In the case of CCACUCAUCAGUGACAAAATT against Olfr820, the z-score is reported as inactive: 0.877.
With CGUGGUCUCGGACACUUUCTT against Hcn2 the z-score was inactive: -0.096.
For GGGUCUUUCUAAAAAGUUCTT against Fry, the z-score was inactive: -0.75.
For GCAAGUGUACUAUUCCAUCTT against Myh6, the z-score was inactive: 0.0886.
For GCCUUCUGUGAGGAUCUUUTT against Megf10, the z-score was inactive: 0.171.
For GGAAUUGGAUGAAAUGCCATT against Msantd2, the z-score was inactive: 0.504.
With GAGUUACAUGCGAAUAUGATT against Ndufc1 the z-score was inactive: -1.37.
In the case of CCGAUUUAACUGAAUUUGCTT against Acaa2, the z-score is reported as inactive: 0.342.
For GCCAGAGGAUAACCUAUCGTT against Dsg4, the z-score was inactive: -0.254.
With GGAUGUAAGGCCUUUUUUATT against Esr2 the z-score was inactive: 0.676.
With GGAACAUAAGAUCUGCCUGTT against Crybb1 the z-score was inactive: 0.84.
For GGCAAAAAGAAGCUGAUGATT against Zswim6, the z-score was inactive: -0.631.

From PubChem BioAssay AID1508600 (Functional Genomics Laboratory (NCATS/FGL), 2020)
